## Library screen at single concentrations

Protein sequences, listed by entry. Tags and fused reporters are not part of them. Residues count along the entry.
UniProt P9WFT3, whole entry: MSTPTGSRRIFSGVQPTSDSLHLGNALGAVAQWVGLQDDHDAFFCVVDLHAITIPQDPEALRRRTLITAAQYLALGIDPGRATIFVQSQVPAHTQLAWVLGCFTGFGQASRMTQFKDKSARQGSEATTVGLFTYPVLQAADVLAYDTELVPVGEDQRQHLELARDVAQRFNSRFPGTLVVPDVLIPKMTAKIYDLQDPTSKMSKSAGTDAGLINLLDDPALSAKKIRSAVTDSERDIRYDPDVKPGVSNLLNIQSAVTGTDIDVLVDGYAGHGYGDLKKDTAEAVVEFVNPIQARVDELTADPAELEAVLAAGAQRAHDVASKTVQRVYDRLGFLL
UniProt P9WPC5, whole entry: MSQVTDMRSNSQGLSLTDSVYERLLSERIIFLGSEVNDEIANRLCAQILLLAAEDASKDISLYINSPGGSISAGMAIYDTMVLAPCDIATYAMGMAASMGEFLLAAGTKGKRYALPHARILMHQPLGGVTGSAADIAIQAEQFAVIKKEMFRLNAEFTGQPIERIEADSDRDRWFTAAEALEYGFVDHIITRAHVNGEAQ
UniProt P9WPC3, whole entry partner: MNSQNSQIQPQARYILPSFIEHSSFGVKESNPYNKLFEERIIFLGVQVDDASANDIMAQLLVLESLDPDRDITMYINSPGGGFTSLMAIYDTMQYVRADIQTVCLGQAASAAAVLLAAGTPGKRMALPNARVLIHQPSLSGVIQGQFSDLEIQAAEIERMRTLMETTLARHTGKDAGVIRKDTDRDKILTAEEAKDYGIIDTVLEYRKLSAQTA
UniProt I6X8D2, whole entry: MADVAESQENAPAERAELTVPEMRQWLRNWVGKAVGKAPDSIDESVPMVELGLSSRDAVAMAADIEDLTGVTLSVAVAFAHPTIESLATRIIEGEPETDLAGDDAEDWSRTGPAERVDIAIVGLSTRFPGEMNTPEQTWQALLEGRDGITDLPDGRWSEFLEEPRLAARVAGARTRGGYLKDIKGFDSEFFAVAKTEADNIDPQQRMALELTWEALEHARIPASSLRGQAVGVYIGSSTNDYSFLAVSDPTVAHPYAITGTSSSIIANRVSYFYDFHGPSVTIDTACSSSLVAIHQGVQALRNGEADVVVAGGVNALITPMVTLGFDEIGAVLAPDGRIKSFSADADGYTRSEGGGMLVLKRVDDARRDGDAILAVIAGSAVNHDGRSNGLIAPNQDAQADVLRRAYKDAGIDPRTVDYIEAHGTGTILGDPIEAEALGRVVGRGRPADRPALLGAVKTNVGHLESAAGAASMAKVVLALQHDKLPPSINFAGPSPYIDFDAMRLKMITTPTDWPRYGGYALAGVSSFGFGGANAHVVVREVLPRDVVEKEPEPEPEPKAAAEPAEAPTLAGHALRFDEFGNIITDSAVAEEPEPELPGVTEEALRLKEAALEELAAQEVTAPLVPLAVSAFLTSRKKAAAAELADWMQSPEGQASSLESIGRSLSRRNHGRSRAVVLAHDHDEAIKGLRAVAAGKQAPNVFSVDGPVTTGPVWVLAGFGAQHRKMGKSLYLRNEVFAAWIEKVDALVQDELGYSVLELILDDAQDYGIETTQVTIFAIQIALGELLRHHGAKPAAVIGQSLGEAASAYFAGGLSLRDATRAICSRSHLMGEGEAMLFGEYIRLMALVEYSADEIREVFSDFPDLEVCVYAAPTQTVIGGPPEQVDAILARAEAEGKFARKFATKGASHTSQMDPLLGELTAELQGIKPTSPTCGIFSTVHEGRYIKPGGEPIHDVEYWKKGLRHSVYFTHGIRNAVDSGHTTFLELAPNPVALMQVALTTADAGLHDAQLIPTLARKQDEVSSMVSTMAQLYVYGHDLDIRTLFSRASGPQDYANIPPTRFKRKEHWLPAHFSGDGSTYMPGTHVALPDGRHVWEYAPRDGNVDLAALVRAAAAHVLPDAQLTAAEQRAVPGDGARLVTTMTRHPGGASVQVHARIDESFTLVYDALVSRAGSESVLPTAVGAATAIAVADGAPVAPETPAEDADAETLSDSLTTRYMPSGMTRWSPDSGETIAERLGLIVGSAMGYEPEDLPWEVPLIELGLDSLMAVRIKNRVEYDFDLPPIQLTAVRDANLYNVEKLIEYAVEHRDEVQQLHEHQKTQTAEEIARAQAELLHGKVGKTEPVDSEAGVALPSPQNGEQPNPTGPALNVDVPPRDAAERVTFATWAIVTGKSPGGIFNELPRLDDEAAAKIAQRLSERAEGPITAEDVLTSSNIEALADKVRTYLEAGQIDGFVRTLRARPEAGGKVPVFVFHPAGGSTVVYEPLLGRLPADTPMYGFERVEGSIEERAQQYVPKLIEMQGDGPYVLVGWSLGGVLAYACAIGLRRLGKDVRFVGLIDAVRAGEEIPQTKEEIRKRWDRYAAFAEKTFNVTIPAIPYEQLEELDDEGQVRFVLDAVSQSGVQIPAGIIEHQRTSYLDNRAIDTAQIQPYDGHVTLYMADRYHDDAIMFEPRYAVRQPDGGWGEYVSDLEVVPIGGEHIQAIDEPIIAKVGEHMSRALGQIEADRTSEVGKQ
UniProt Q8IDJ8, 1-583: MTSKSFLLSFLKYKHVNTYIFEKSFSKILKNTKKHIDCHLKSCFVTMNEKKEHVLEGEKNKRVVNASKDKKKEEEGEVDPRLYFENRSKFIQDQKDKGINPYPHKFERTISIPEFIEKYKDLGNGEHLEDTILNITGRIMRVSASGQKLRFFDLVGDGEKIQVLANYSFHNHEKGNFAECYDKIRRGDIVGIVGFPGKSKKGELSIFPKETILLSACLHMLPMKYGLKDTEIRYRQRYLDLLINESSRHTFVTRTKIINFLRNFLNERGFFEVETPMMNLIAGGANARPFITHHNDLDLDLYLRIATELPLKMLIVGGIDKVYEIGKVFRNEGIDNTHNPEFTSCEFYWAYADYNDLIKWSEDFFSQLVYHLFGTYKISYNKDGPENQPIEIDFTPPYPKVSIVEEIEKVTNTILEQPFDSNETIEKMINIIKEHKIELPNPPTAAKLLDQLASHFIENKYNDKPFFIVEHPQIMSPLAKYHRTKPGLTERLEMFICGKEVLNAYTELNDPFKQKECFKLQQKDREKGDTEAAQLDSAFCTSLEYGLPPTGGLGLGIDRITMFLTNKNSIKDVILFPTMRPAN

Values are the deposited “Percent Effect”, in %.
The controls that fix the scale are not given in the record; negative values are as filed.
This is an unselected part of the compounds tested.

MtTrpRS: 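Enzyme assay of tryptophanyl-tRNA synthetase; the read-out is not stated. Target: Tryptophan-tRNA ligase, Mycobacterium tuberculosis (UniProt P9WFT3). Compounds at 10 µM. Direction is not recorded; retested compounds ran higher, which suggests that high means inhibition. Of about 65,000 compounds tested this way, about 64 (0.098%) reached 50% or more in at least one test.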
ClpP1P2: 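Protease assay of ClpP1P2, read by the AMC dye that it sets free. Target: ClpP1P2, Mycobacterium tuberculosis (UniProt P9WPC5 and UniProt P9WPC3). Concentration: 50 µM. Direction is inferred from only a few compounds that gave an IC50; most scored high, so higher reads as stronger inhibition. Most other retested compounds had strongly negative values. Size under these conditions: about 69,000 compounds, about 10 of them at 50% or above in at least one test.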
Pks13 thioesterase: 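Enzyme assay of the thioesterase domain of polyketide synthase 13; the read-out is not stated. Target: Polyketide synthase Pks13, Mycobacterium tuberculosis (UniProt I6X8D2). Compounds at 30 µM. The record gives no direction; the compounds picked for IC50 retests had high values, so higher reads as stronger inhibition. Of about 67,000 compounds tested this way, about 300 (0.46%) reached 50% or more in at least one test.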
PfKRS1: 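Lysine-tRNA ligase, Plasmodium falciparum 3D7 (UniProt Q8IDJ8). Enzyme assay of the cytosolic lysyl-tRNA synthetase in 384-well plates, read by luminescence. Compounds at 30 µM. Higher reads as stronger inhibition, judged from the few compounds that gave an IC50. Size under these conditions: about 69,000 compounds, about 49 of them at 50% or above in at least one test.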

CN1CCN(c2ccnc3c(F)cc(Br)cc23)CC1 read MtTrpRS: -4.558%; ClpP1P2: -7.048%; Pks13 thioesterase: -1.52%; PfKRS1: 5.639%.
CC(=O)N1CCCN(C(=O)NCCc2ccc(Cl)s2)CC1 read MtTrpRS: 0.8772%; ClpP1P2: -1.009%; Pks13 thioesterase: -8.14%; PfKRS1: 5.589%.
CO[C@@H]1CC[C@H]2[C@H]1OCCN2C(=O)c1ccc(C)o1 read MtTrpRS: 16.65%; ClpP1P2: 15.12%; Pks13 thioesterase: -14.67%; PfKRS1: -15.17%.
Cc1ccc(OCC(O)CN2CCC(Cn3cc(C)cn3)CC2)cc1 (stereo not shown) read MtTrpRS: -0.2839%; ClpP1P2: -35.56%; Pks13 thioesterase: -9.263%; PfKRS1: 1.085%.
O=C(Cn1nc(-c2ccc(F)cc2)oc1=O)NCc1ccc(F)cc1 read MtTrpRS: -3.774%; ClpP1P2: 28.46%; Pks13 thioesterase: -9.486%; PfKRS1: -2.195%.
COc1cc(F)ccc1-c1cc(N)ccn1 read MtTrpRS: 0.8215%; ClpP1P2: -1.025%; Pks13 thioesterase: 41.44%; PfKRS1: 0.524%.
CN(Cc1ccncc1)C1COC2(CCN(Cc3ccsc3)CC2)C1 (stereo not shown) read MtTrpRS: 1.918%; ClpP1P2: 2.972%; Pks13 thioesterase: -2.852%; PfKRS1: 2.95%.
Cc1ccc2c(c1)C(NCc1ncnn1C)CC2 (stereo not shown) read MtTrpRS: 3.311%; ClpP1P2: -31.24%; Pks13 thioesterase: 1.535%; PfKRS1: -1.691%.
O=C1NC2(CCN(C(=O)N3CCOCC3)CC2)CC1c1cccnc1 (stereo not shown) read MtTrpRS: -0.53%; ClpP1P2: -9.827%; Pks13 thioesterase: 3.774%; PfKRS1: -0.4704%.
O=C(Nc1cnn(-c2ccccc2Cl)c1)N[C@@H]1C=C[C@H](CO)C1 read MtTrpRS: 1.636%; ClpP1P2: -1.013%; Pks13 thioesterase: -30.68%; PfKRS1: 8.492%.
CCOC(=O)NCCC(=O)NCc1ccc(Oc2cccc(F)c2)nc1 read MtTrpRS: 0.7158%; ClpP1P2: -0.8999%; Pks13 thioesterase: -8.206%; PfKRS1: 5.003%.
Cc1nc(N)ncc1C(=O)N1CCCC(CCc2ccc(F)c(F)c2)C1 (stereo not shown) read MtTrpRS: -7.048%; ClpP1P2: -1.685%; Pks13 thioesterase: -19.39%; PfKRS1: 1.886%.
CCOC(C)c1noc(CN2CCN(CC3CCCC3)CC2)n1 (stereo not shown) read MtTrpRS: -5.091%; ClpP1P2: 6.319%; Pks13 thioesterase: 3.81%; PfKRS1: 2.06%.
Cn1nnc2cc(C(=O)NS(=O)(=O)c3ccc(F)cc3)ccc21 read MtTrpRS: -4.964%; ClpP1P2: 3.045%; Pks13 thioesterase: -12.65%; PfKRS1: 6.312%.
CCOC(=O)[C@H]1[C@@H](O)C(=O)N(C)C12CCN(C(=O)C(CC)CC)CC2 read ClpP1P2: 1.068%; Pks13 thioesterase: 12.1%; PfKRS1: 1.895%.
Cc1c(C(=O)NCC2CCN(Cc3ccco3)C2)[nH]c2ccccc12 (stereo not shown) read MtTrpRS: -2.744%; ClpP1P2: 7.052%; Pks13 thioesterase: -24.26%; PfKRS1: 3.756%.
O=C1CCCC2=C1C(c1ccc(F)cc1F)Nc1nonc1N2 (stereo not shown) read MtTrpRS: -3.717%; ClpP1P2: -19.99%; Pks13 thioesterase: -11.01%; PfKRS1: 5.66%.
O=C1N(Cc2ccc(Cl)cc2)CCC12CCCNC2 (stereo not shown) read MtTrpRS: -11.34%; ClpP1P2: 12.91%; Pks13 thioesterase: -33.29%; PfKRS1: 1.541%.
O=C(NC1CCCc2nc(N3CCOCC3)ncc21)C1CCCC1 (stereo not shown) read ClpP1P2: -2.681%; Pks13 thioesterase: -5.963%; PfKRS1: 0.2792%.

Some entries from above, unchanged:

| SMILES | MtTrpRS | ClpP1P2 | Pks13 thioesterase | PfKRS1 |
|---|---|---|---|---|
| `CN1CCN(c2ccnc3c(F)cc(Br)cc23)CC1` | -4.558 | -7.048 | -1.52 | 5.639 |
| `O=C(Nc1cnn(-c2ccccc2Cl)c1)N[C@@H]1C=C[C@H](CO)C1` | 1.636 | -1.013 | -30.68 | 8.492 |

Data taken from ChEMBL document CHEMBL3988442, “University of Dundee, Small-Polar-MMV Screening Library” (2021).